PubChem BioAssay AID1259308 | NCATS, 2017

- Screen: 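Candidate targets for better recombinant protein yield in mammalian cells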 (primary screen)
- System: human HEK293 embryonic kidney cells stably expressing firefly luciferase (HEK-CMV-Luc2-Hygro)
- Reagents: single siRNA against human genes, 0.8 pmol siRNA per well
- Time to read-out: 72 h
- Measurement: 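Reporter luminescence and viable-cell signal on separate replicate plates, given as percent of non-targeting control and median/MAD z-scores, plus per-cell luciferase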
- Direction: total luciferase, z-score and total luciferase, % of control: higher = more reporter protein produced; luciferase per cell, z-score: higher = more reporter output per viable cell; viable cells, % of control: higher = more viable cells
- Active means: 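Active when the median/MAD z-score for overall luciferase is greater than 3; a gene was taken forward for validation with new siRNAs if at least two of its three siRNAs passed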
- Meaning of the calls: active = raised luciferase; inactive = no rise
Here is a random part of about 59,000 reagents tested. In the full data, about 1,510 (2.6%) are marked active. 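Calls use total luciferase alone and ignore viability, so some active siRNAs may act by altering cell number.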 The numbers tell different reagents against one gene apart.

target gene | siRNA no. | total luciferase, z-score | total luciferase, % of control | luciferase per cell, z-score | viable cells, % of control | call
HCFC1R1 (host cell factor C1 regulator 1) | 1 | 1.43 | 110 | 1.22 | 89.6 | inactive
HCFC1R1 (host cell factor C1 regulator 1) | 2 | 0.447 | 90.8 | 0.223 | 95.6 | inactive
HCFC1R1 (host cell factor C1 regulator 1) | 3 | -0.0145 | 81.6 | -0.0287 | 91.9 | inactive
LMBR1L (limb development membrane protein 1 like) | 1 | 1.31 | 108 | 0.405 | 108 | inactive
LMBR1L (limb development membrane protein 1 like) | 2 | 0.159 | 85 | 1.18 | 69.6 | inactive
LMBR1L (limb development membrane protein 1 like) | 3 | -0.408 | 73.8 | -1.24 | 114 | inactive
MVP (major vault protein) | 1 | -0.478 | 72.4 | 0.512 | 70.7 | inactive
MVP (major vault protein) | 2 | -1.63 | 49.5 | -1.32 | 78.4 | inactive
MVP (major vault protein) | 3 | -0.0566 | 80.8 | 0.287 | 83.7 | inactive
TOR4A (torsin family 4 member A) | 1 | -0.2 | 77.9 | -0.887 | 110 | inactive
TOR4A (torsin family 4 member A) | 2 | 0.289 | 87.6 | -0.0743 | 99.9 | inactive
TOR4A (torsin family 4 member A) | 3 | 0.412 | 90.1 | 1.36 | 70.3 | inactive
SLC45A1 | 1 | 0.63 | 94.4 | 0.128 | 102 | inactive
SLC45A1 | 2 | -0.0751 | 80.4 | -0.352 | 98.6 | inactive
SLC45A1 | 3 | -0.926 | 63.5 | -0.0643 | 72.1 | inactive
TBC1D14 (TBC1 domain family member 14) | 1 | -0.391 | 74.1 | 0.288 | 76.8 | inactive
TBC1D14 (TBC1 domain family member 14) | 2 | -1.25 | 57.1 | -0.984 | 82.7 | inactive
TBC1D14 (TBC1 domain family member 14) | 3 | 0.502 | 91.9 | 1.14 | 76.1 | inactive
TGFBR1 (transforming growth factor beta receptor 1) | 1 | -0.284 | 76.2 | 0.883 | 67.5 | inactive
TGFBR1 (transforming growth factor beta receptor 1) | 2 | 1.06 | 103 | 0.0878 | 112 | inactive
TGFBR1 (transforming growth factor beta receptor 1) | 3 | -0.109 | 79.7 | 1.15 | 65.8 | inactive
KRT4 (keratin 4) | 1 | 2.43 | 130 | 2.14 | 82.8 | inactive
KRT4 (keratin 4) | 2 | 0.638 | 94.6 | 0.484 | 93 | inactive
KRT4 (keratin 4) | 3 | 0.433 | 90.5 | -0.179 | 106 | inactive
FOXK2 (forkhead box K2) | 1 | -0.447 | 73 | -0.0545 | 82.7 | inactive
FOXK2 (forkhead box K2) | 2 | -1.12 | 59.5 | -0.984 | 86.2 | inactive
FOXK2 (forkhead box K2) | 3 | -1.85 | 45 | -1.83 | 81.5 | inactive
PCDHB9 (protocadherin beta 9) | 1 | -0.595 | 70.1 | -0.857 | 98.1 | inactive
PCDHB9 (protocadherin beta 9) | 2 | 0.562 | 93.1 | -0.182 | 109 | inactive
PCDHB9 (protocadherin beta 9) | 3 | -0.145 | 79 | -0.922 | 113 | inactive

Ordered by “total luciferase, % of control” (highest first): 9 of the entries above.
target gene | siRNA no. | total luciferase, z-score | total luciferase, % of control | luciferase per cell, z-score | viable cells, % of control | call
KRT4 (keratin 4) | 1 | 2.43 | 130 | 2.14 | 82.8 | inactive
TGFBR1 (transforming growth factor beta receptor 1) | 2 | 1.06 | 103 | 0.0878 | 112 | inactive
KRT4 (keratin 4) | 2 | 0.638 | 94.6 | 0.484 | 93 | inactive
TBC1D14 (TBC1 domain family member 14) | 3 | 0.502 | 91.9 | 1.14 | 76.1 | inactive
KRT4 (keratin 4) | 3 | 0.433 | 90.5 | -0.179 | 106 | inactive
TGFBR1 (transforming growth factor beta receptor 1) | 3 | -0.109 | 79.7 | 1.15 | 65.8 | inactive
TGFBR1 (transforming growth factor beta receptor 1) | 1 | -0.284 | 76.2 | 0.883 | 67.5 | inactive
FOXK2 (forkhead box K2) | 1 | -0.447 | 73 | -0.0545 | 82.7 | inactive
FOXK2 (forkhead box K2) | 2 | -1.12 | 59.5 | -0.984 | 86.2 | inactive

The listing continues:
target gene | siRNA no. | total luciferase, z-score | total luciferase, % of control | luciferase per cell, z-score | viable cells, % of control | call
OMD (osteomodulin) | 1 | -1.13 | 59.4 | -1.64 | 102 | inactive
OMD (osteomodulin) | 2 | -2.64 | 29.4 | -2.31 | 60.4 | inactive
OMD (osteomodulin) | 3 | 0.738 | 96.6 | 0.502 | 94.5 | inactive
KPNB1 (karyopherin subunit beta 1) | 1 | 2.34 | 128 | 2.85 | 67.7 | inactive
KPNB1 (karyopherin subunit beta 1) | 2 | 1.21 | 106 | 2.1 | 68.2 | inactive
KPNB1 (karyopherin subunit beta 1) | 3 | 2.54 | 132 | 2.37 | 79.2 | inactive
CRYGD (crystallin gamma D) | 1 | 0.0609 | 83.1 | 0.208 | 87.9 | inactive
CRYGD (crystallin gamma D) | 2 | 0.413 | 90.1 | 0.529 | 87.6 | inactive
CRYGD (crystallin gamma D) | 3 | -2.24 | 37.3 | -2.33 | 76.8 | inactive
RUFY3 (RUN and FYVE domain containing 3) | 1 | -0.408 | 73.8 | -0.651 | 97.8 | inactive
RUFY3 (RUN and FYVE domain containing 3) | 2 | -0.679 | 68.4 | -0.263 | 81.9 | inactive
RUFY3 (RUN and FYVE domain containing 3) | 3 | -0.123 | 79.4 | 0.176 | 84.8 | inactive
RPS28P7 (ribosomal protein S28 pseudogene 7) | 1 | -2.5 | 32.2 | -2.09 | 62.2 | inactive
RPS28P7 (ribosomal protein S28 pseudogene 7) | 2 | -2.75 | 27.2 | -1.88 | 50 | inactive
RPS28P7 (ribosomal protein S28 pseudogene 7) | 3 | -2.81 | 25.9 | -2.67 | 58.5 | inactive
HEPACAM (hepatic and glial cell adhesion molecule) | 1 | -0.0929 | 80 | -0.586 | 104 | inactive
HEPACAM (hepatic and glial cell adhesion molecule) | 2 | -0.926 | 63.5 | 0.00716 | 70.8 | inactive
HEPACAM (hepatic and glial cell adhesion molecule) | 3 | -0.406 | 73.8 | -0.332 | 90 | inactive
ASRGL1 (asparaginase and isoaspartyl peptidase 1) | 1 | 2.48 | 131 | 0.758 | 120 | inactive
ASRGL1 (asparaginase and isoaspartyl peptidase 1) | 2 | -0.28 | 76.3 | 0.653 | 71.8 | inactive
ASRGL1 (asparaginase and isoaspartyl peptidase 1) | 3 | 1.45 | 111 | 1.54 | 82.5 | inactive
SACS (sacsin molecular chaperone) | 1 | 0.0495 | 82.9 | -0.514 | 106 | inactive
SACS (sacsin molecular chaperone) | 2 | 2.36 | 129 | 1.61 | 94.3 | inactive
SACS (sacsin molecular chaperone) | 3 | -0.0929 | 80 | -1.07 | 119 | inactive
CRYBA2 (crystallin beta A2) | 1 | 1.25 | 107 | 1.67 | 76.8 | inactive
CRYBA2 (crystallin beta A2) | 2 | 2.33 | 128 | 2.75 | 69.4 | inactive
CRYBA2 (crystallin beta A2) | 3 | 2.16 | 125 | 1.62 | 91 | inactive
